Here are results for 2 substances from PMC11091118.

Protein sequences, listed by entry. Tags and fused reporters are not part of them.
UniProt P78527: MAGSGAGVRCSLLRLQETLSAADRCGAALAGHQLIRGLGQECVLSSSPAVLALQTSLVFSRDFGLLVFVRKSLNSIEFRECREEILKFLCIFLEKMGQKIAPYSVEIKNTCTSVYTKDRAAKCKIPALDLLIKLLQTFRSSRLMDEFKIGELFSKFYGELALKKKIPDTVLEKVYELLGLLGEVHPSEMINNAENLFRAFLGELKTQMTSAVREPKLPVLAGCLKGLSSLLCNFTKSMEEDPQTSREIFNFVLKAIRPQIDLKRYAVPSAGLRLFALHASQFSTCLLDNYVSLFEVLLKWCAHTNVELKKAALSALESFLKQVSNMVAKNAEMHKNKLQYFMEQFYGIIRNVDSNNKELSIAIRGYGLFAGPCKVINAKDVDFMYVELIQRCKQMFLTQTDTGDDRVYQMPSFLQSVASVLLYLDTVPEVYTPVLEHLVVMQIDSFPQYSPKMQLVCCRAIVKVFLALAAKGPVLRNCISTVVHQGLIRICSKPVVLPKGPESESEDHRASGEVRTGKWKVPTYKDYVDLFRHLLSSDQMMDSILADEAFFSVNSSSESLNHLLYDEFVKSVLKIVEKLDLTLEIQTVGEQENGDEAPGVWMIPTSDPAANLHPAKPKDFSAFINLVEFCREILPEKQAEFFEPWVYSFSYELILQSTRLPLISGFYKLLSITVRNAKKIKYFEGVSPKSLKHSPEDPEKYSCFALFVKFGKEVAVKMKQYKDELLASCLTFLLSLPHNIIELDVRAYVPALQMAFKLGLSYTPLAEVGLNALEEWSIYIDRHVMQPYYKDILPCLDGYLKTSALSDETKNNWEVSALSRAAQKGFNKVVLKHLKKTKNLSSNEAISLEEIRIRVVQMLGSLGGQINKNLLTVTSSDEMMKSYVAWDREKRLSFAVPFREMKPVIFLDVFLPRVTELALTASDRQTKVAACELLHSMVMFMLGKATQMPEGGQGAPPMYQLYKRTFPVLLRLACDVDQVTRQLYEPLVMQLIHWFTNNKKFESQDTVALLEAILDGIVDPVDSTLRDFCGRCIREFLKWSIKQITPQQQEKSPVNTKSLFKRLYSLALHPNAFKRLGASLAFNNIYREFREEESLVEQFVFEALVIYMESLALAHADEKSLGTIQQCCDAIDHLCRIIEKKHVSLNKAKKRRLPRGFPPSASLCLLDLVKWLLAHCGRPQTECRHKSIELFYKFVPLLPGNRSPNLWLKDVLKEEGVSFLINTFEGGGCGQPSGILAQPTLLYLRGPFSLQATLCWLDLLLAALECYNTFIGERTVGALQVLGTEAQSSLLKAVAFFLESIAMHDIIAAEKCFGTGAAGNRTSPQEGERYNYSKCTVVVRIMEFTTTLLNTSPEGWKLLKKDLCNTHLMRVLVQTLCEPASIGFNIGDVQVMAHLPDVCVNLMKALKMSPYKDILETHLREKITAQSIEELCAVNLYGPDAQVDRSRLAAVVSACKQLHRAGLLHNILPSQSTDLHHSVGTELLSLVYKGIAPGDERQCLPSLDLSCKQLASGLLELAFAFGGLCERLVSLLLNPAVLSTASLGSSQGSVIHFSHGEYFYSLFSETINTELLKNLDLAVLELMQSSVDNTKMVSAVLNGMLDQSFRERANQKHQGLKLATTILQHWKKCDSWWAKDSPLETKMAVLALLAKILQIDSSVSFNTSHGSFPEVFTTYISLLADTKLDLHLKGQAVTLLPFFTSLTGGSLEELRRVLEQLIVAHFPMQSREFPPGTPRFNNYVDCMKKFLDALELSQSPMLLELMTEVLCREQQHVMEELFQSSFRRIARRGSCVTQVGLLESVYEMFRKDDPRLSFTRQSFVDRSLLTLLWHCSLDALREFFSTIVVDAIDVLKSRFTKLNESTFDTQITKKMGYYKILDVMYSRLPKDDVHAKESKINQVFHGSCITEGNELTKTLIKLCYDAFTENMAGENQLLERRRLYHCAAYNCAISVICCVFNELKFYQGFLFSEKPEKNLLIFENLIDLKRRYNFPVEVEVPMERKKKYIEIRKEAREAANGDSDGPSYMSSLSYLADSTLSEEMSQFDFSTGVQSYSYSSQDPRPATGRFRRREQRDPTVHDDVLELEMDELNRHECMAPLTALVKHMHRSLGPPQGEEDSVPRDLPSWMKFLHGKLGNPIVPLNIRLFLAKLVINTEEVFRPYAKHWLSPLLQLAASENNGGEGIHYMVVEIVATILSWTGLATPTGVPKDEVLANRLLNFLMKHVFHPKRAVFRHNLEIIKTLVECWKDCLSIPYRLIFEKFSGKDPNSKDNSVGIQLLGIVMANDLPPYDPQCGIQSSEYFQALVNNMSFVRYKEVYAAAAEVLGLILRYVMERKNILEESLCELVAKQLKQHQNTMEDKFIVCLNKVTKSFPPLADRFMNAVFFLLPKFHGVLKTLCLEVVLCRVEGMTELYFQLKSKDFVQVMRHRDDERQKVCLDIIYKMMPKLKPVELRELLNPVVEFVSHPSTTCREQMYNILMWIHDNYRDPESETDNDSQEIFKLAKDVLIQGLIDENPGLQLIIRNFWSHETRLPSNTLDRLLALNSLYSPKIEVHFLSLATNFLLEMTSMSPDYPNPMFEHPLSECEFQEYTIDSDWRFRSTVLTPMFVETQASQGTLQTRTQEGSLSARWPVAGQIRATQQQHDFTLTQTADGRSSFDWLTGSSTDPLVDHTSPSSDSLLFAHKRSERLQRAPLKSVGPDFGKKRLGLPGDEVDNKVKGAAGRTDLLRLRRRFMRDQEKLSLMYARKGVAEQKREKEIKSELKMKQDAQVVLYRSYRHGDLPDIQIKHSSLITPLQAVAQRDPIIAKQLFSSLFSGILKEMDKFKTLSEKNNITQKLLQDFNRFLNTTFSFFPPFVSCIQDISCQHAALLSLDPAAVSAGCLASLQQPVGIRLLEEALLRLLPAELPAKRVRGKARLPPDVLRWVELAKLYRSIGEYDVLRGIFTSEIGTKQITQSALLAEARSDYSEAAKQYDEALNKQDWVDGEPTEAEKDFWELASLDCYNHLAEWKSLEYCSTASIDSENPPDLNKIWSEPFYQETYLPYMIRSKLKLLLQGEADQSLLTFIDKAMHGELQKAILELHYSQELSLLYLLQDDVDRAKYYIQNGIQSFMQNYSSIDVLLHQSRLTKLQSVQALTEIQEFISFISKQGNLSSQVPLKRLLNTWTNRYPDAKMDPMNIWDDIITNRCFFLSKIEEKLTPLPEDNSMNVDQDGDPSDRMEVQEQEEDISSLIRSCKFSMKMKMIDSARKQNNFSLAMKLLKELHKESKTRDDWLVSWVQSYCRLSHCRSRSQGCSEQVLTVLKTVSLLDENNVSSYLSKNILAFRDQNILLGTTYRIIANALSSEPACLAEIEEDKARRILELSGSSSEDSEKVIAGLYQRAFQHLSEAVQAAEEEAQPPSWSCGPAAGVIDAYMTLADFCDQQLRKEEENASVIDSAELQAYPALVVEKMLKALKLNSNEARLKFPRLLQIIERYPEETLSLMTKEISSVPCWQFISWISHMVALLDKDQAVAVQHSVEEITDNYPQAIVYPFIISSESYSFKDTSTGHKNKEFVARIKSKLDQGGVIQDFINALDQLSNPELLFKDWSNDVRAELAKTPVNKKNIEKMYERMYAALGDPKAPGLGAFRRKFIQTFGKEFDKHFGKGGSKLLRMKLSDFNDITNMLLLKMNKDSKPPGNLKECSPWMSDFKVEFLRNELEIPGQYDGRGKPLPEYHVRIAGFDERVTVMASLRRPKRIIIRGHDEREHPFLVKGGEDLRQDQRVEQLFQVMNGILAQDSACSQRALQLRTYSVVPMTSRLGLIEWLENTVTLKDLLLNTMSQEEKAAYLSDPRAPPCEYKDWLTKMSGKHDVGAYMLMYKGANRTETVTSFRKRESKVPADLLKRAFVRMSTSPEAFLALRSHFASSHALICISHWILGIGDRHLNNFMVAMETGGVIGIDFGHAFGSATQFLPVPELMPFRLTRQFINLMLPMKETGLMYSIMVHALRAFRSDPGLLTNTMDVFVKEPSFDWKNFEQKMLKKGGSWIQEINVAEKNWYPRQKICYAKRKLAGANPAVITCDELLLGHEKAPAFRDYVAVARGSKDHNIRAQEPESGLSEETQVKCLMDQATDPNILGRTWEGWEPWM
UniProt Q92830: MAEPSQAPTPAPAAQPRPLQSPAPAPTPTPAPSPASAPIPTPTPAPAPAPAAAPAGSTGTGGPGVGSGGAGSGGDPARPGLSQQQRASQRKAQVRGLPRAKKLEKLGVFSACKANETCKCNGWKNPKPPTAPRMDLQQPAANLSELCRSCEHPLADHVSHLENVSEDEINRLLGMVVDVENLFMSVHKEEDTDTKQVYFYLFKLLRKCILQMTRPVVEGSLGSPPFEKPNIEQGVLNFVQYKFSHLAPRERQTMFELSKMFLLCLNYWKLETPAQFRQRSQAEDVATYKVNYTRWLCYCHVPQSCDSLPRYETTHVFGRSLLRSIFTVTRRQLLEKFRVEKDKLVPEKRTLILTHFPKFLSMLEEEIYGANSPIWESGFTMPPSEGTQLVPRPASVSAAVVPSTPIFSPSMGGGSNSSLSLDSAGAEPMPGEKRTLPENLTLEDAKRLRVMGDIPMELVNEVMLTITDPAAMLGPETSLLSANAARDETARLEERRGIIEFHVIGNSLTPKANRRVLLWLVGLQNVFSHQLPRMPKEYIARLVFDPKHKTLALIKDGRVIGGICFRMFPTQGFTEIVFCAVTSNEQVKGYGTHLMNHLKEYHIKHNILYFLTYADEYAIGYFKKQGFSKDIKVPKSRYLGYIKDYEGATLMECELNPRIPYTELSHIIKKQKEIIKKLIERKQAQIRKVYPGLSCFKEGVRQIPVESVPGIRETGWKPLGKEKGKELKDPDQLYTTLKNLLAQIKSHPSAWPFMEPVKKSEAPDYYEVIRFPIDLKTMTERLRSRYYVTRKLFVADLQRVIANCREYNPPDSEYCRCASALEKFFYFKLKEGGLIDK
UniProt O15379: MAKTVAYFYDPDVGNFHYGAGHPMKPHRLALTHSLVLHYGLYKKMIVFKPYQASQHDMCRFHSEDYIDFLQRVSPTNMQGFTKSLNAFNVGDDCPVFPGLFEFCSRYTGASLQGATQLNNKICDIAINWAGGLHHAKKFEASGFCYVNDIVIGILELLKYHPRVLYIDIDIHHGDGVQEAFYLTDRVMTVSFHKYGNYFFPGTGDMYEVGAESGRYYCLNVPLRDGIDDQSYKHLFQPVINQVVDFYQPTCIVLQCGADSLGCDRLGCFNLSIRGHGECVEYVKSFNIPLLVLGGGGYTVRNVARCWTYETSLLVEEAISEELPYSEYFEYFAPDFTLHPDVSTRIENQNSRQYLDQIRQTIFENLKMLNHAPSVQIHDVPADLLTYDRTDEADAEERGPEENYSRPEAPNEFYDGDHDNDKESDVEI

These are yes or no findings as the source states them, for the method shown. In cells and extracts the contact can be indirect. Some binding calls cover weakened binding; strength is not graded here.

The assay deals with DNA-PK catalytic subunit (DNA-PKcs), endogenous (human (endogenous in HeLa)) (UniProt P78527). Description: co-IP; HeLa cells treated with IR or not; co-IP of endogenous proteins with indicated antibodies; NETN buffer.

For the substance “General control nondepressible 5 (GCN5), endogenous (from UniProt Q92830 1-837) (enzyme)”, the binding result was “binds”.

Take “HDAC3, endogenous (from UniProt O15379 1-428) (enzyme)”: the binding result was “binds”.
